Results: patent publication US7795381B2, “Methods and materials for cancer treatment” (Mayo Foundation for Medical Education and Research, priority 2001, dated 2010)
“Also recorded” adds a separate entry of the source. Part of at least one peptide drawing is inferred or uncertain, most often the ends. No end group written: not given here.

Tests used:
Type in all cases: cell-based, human
CD4+ T cells (HTL lines) [1] = assay: T-cell proliferative response to polypeptide, dose curve ([3H]-thymidine)
Method: (§1) Polypeptides gp10074-89, gp100175-189 and gp100576-590 were tested for their capacity to stimulate CD4^+ T cells obtained from four healthy, MHC-typed individuals in primary in vitro cultures using polypeptide-pulsed autologous dendritic cells (DC). The method used to generate tumor antigen-reactive HTL lines and clones using polypeptide-stimulated peripheral blood mononuclear cells (PBMC) was recently described in detail (Kobayashi H et al., Cancer Res 60:5228 (2000)). Briefly, DC were generated in tissue culture from adherent monocytes that were cultured for 7 days in the presence of GM-CSF and IL-4. […]
(§2) T cells (3×10^4/well) were mixed with irradiated APC in the presence of various concentrations of antigen (polypeptides, tumors or tumor lysates), in 96-well culture plates. […] The radioactivity incorporated into DNA, which correlates with cell proliferation, was measured in a liquid scintillation counter after harvesting the cell cultures onto glass fiber filters. […] The stimulation index (SI) was calculated by dividing the mean radioactivity (cpm) obtained in the presence of antigen by the mean radioactivity (cpm) obtained in the absence of antigen but in the presence of APC.

CD4+ T cells (HTL lines) [2] = assay: MHC restriction analysis of HTL proliferative response (anti-HLA-DR/-DQ blocking, HLA-transfected L-cells, LCL); settings: anti-DR/anti-DQ antibody blocking, allogeneic LCL
Method: as §1, §2

[3] = system: melanoma tumor cells or tumor lysates presented by APC; assay: Recognition of naturally processed antigen by polypeptide-reactive HTL (proliferation, GM-CSF/IFN-γ ELISA)
Description: Recognition of naturally processed antigen by polypeptide-reactive T-cells can be an important parameter to determine whether a predicted T-cell epitope can be used to elicit an immune response against tumor cells. HTL may recognize polypeptide/MHC class II complexes directly on tumor cells that are MHC class II positive and as a consequence the T-cells will become activated and produce cytokines that provide help to CTL or cytokines that may inhibit tumor cell growth.
T cells (3×10^4/well) were mixed with irradiated APC in the presence of various concentrations of antigen (polypeptides, tumors or tumor lysates), in 96-well culture plates. APC consisted of either PBMC (1×10^5/well), HLA-DR-expressing L-cells (3×10^4/well), EBV-LCL or melanoma tumor cells (3×10^4/well), pretreated with IFN-γ (500 U/ml for 48 h) to enhance MHC expression. Proliferation assays were incubated at 37° C. in a 5% CO2 incubator for 72 h and during the last 16 h, each well was pulsed with 0.5 μCi/well of [^3H]-thymidine (Amersham Pharmacia Biotech, Piscataway, N.J.). In some cases, culture supernatants were collected before the addition of [^3H]-thymidine for the determination of lymphokine production using ELISA kits (Pharmingen, San Diego, Calif.). The radioactivity incorporated into DNA, which correlates with cell proliferation, was measured in a liquid scintillation counter after harvesting the cell cultures onto glass fiber filters. […] The stimulation index (SI) was calculated by dividing the mean radioactivity (cpm) obtained in the presence of antigen by the mean radioactivity (cpm) obtained in the absence of antigen but in the presence of APC.

## GRAMLGTHTMEVTVY [gp100175-189, GRAMLGTHTMEVTVY]
CD4+ T cells (HTL lines) [1]; HLA-DQw6-restricted HTL line
  polypeptide concentration required to obtain 50% of the maximal proliferation: ~2 µg/mL
CD4+ T cells (HTL lines) [1]; HLA-DR53-restricted HTL line
  polypeptide concentration required to obtain 50% of the maximal proliferation: ~2 µg/mL
CD4+ T cells (HTL lines) [2]
  MHC restriction of the induced CD4+ T-cell (HTL) proliferative response: restricted by HLA-DR53 and -DQw6
[3]; HTL clone 5D10, HLA-DR53-restricted
  HTL recognition of melanoma cell lysates presented by autologous APC: unable to recognize melanoma cell lysates
[3]; HTL clone 5D10, HLA-DR53-restricted, HLA-DR53 positive melanomas, IFN-γ
  HTL recognition of intact melanomas: very effective in recognizing intact HLA-DR53 positive melanomas
[3]; MHC class II positive melanomas or APC fed with tumor lysates
  recognition of naturally processed antigen by HTL reactive to the polypeptide: can also recognize naturally processed antigen; also recorded: capable of recognizing naturally processed antigen
[3]; T-cell clone 4D16, HLA-DQw6-restricted, DQw6+ melanomas, GM-CSF
  HTL recognition of antigen directly on intact melanomas: quite effective in recognizing antigen
[3]; T-cell clone 4D16, HLA-DQw6-restricted, GM-CSF
  HTL recognition of antigen from melanoma lysates presented by autologous APC: capable of reacting with antigen derived from melanoma lysates
